The text below walks through data of patent publication US9765332.

By UniProt entry, the sequences of proteins in these tests, tags left out. Residues count along the entry.
UniProt P0A6X3, 2-102: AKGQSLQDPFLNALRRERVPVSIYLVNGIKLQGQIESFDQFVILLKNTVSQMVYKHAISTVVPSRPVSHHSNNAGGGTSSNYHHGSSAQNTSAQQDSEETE

Series [1] has as its target Hfq (Escherichia coli) (UniProt P0A6X3). The series can be described thus: EMSA. Particulars: ternary RydC-Hfq-csgD mRNA215 complex; Hfq 1:1 with RydC; nearly all RydC in complex at 1:1 mRNA; purified recombinant protein; label: 5'-32P on RydC. (A gel shift assay detects complexes by their altered migration in electrophoresis.)
The target is the same in series [2]. Description: footprint. Particulars: Hfq binds RydC and alters reactivity at two connecting loops and H1; purified recombinant protein; label: 5'-32P.

The exact form of at least one protein or probe is not confirmed.

For “CUUCCGAUGUAGACCCGUAUUCUUCGCCUGUACCACGGGUCGGUUUUAGUACAGGCGUUUUCUU / GAUGUAAUCCAUUAGUUUUAUAUUUUACCCAUUUAGGGCUGAUUUAUUACUACACACAGCAGUGCAACAUCUGUCAGUACUUCUGGUGCUUCUAUUUUAGAGGCAGCUGUCAGGUGUGCGAUCAAUAAAAAAAGCGGGGUUUCAUCAUGUUUAAUGAAGUCCAUAGUAUUCAUGGUCAUACAUUAUUGUUGAUCACUAAAUCUUCUUUGCAGGCG [RydC + csgD mRNA215]”, the binding result in the series with Hfq (Escherichia coli) [1] was “binds”.

“CUUCCGAUGUAGACCCGUAUUCUUCGCCUGUACCACGGGUCGGUUUUAGUACAGGCGUUUUCUU [RydC]”: the binding result with Hfq (Escherichia coli) [2] is “binds”.
